Source: PubChem BioAssay AID493014 (National Center for Advancing Translational Sciences (NCATS), 2011)
This is one part of the list. The main result of the screen is listed elsewhere. These columns were measured beside it and carry no call. The list favours compounds with an active or inconclusive main result. The note in brackets gives the kind of curve behind each potency; many fits are weak.

Assay: qHTS Assay to Find Inhibitors of Chronic Active B-Cell Receptor Signaling
Conditions: ABC-DLBCL IkBa-CBG/CBR reporter, luminescence ratio (green luciferase fused to IkBa over red control in TMD8 lymphoma cells), 4 h
Outline: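 Cell line TMD8 (human ABC DLBCL), stably expressing tet-inducible CBG68-IkBa fusion and CBR; IMDM/0.5% FBS; cpd up to 46 uM; dox induction, 4 h, 37C/5% CO2; dual luminescence; green/red ratio; MG132 control.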

[1] = measured here: CBR red luminescence, cell number
[2] = measured here: IkBa-CBG green luminescence

Row | Structure (SMILES) | AC50 [1] | AC50 [2]
1 | C/C(=N/NC(=O)c1cc(Cl)ccc1O)C12CC3CC(CC(C3)C1)C2 | 1.78 µM [falling, full curve] | 
2 | CCOC(=O)C1=C(C)NC(SCC(=O)Nc2cc(C)on2)=C(C#N)C1c1cccs1 (stereo not given) | 14.6 µM [falling, single point] | 
3 | O=[N+]([O-])c1ccc(OCc2nnc(-c3ccccc3)o2)cc1 | 11.2 µM [rising, partial curve, poor fit] | 
4 | Cc1cccc(S(=O)(=O)Nc2ccc(-c3cn4ccccc4n3)cc2)c1 | 13 µM [rising, partial curve] | 
5 | COc1cc(/C=C2\OC(=O)c3c(OC)cccc32)ccc1O |  | 3.26 µM [falling, partial curve]
6 | COc1ccccc1OCCCOc1ccc(/C=C2\SC(=O)NC2=O)cc1OC | 2.51 µM [rising, full curve] | 
7 | C/C(CC(=O)Nc1ccc2c(c1)OCCO2)=N\NC(=O)COc1ccccc1C | 3.98 µM [falling, single point] | 
8 | O=C(c1ccco1)N1CCN(C(=S)NC2CC3CCC2C3)CC1 (stereo not given) | 10 µM [rising, partial curve] | 
9 | CCCCC[C@H](O)/C=C/[C@@H]1[C@@H](C/C=C\CCCC(=O)OC)[C@@H](O)C[C@H]1O | 1 µM [rising, full curve, poor fit] | 6.51 µM [falling, partial curve]
10 | Cc1ccc(S(=O)(=O)N2CCCCC2)cc1NC(=O)Cn1ccsc1=N | 11.2 µM [falling, partial curve, poor fit] | 
11 | CC(/C=N/n1cnnc1)=C\c1ccco1 | 32.6 µM [rising, single point] | 
12 | COc1ccc(C)cc1S(=O)(=O)N(C)CC(=O)N1CCCCCC1 | 29.1 µM [rising, single point] | 
13 | COc1cccc(-n2c(-c3ccccc3)c[nH]c2=S)c1 | 8.91 µM [falling, partial curve] | 
14 | Cn1cccc1CNCC(O)c1ccccc1 (stereo not given) | 0.282 µM [falling, full curve, poor fit] | 
15 | COc1ccc(-c2nc(C#N)c(N3CCCCC3)o2)cc1 | 3.16 µM [falling, partial curve] | 
16 | COc1ccc(-n2c(=O)c3ccccc3n(CC(=O)Nc3cc(C)on3)c2=O)cc1OC | 8.2 µM [rising, partial curve, poor fit] | 
17 | N#Cc1c(-c2cccs2)cc(-c2cccnc2)nc1N | 7.94 µM [falling, partial curve, poor fit] | 
18 | COCCNC(=S)N/N=C(\C)c1cc2ccccc2o1 | 29.1 µM [falling, single point] | 29.1 µM [falling, single point]

3 of the compounds above, comma-delimited:
Row,Structure (SMILES),AC50 [1],AC50 [2]
12,COc1ccc(C)cc1S(=O)(=O)N(C)CC(=O)N1CCCCCC1,"29.1 µM [rising, single point]",
13,COc1cccc(-n2c(-c3ccccc3)c[nH]c2=S)c1,"8.91 µM [falling, partial curve]",
14,Cn1cccc1CNCC(O)c1ccccc1 (stereo not given),"0.282 µM [falling, full curve, poor fit]",
